Measured values published in US20240360178A1, “MACROCYCLIC IMMUNOMODULATORS” (Bristol-Myers Squibb Company, priority 2021, published 2024).
At least one peptide structure holds a part that was inferred or is arguable (an end, a ring closure or a residue). Positions of bridges follow the written chain, without caps; N, C: chain ends. Non-standard residues stand in square brackets, D forms with d. Residues, ends and D or L forms follow the SMILES beside them. Bip = N[C@@H](Cc1ccc(-c2ccccc2)cc1)C(=O)O; dAze = O=C(O)[C@H]1CCN1; Sar = CNCC(=O)O

The chains behind the UniProt entries cited, without tags or fusion partners. Residues count along the entry.
UniProt Q15116, 25-288: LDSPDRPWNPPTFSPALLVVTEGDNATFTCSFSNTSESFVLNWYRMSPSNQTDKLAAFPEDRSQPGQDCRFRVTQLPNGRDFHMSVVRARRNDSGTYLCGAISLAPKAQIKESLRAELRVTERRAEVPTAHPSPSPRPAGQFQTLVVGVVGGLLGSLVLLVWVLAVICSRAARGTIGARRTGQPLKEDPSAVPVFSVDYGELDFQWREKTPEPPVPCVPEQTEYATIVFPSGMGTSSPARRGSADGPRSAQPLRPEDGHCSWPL

Target: T1, human PD-1 (Jurkat-PD-1 cells) / PE-labeled human PD-L1-Ig (Homo sapiens, UniProt Q15116)
T1 construct: expressed in transfected cells; host or cells: Jurkat cell line over-expressing human PD-1
Assay: Jurkat-PD-1 Cell Binding High-Content Screening Assay (CBA); Jurkat hPD1-PDL1 assay
Settings: Jurkat cell line over-expressing human PD-1; PE-labeled PD-L1-Ig 20 nM final; compound incubated 2 hours at 37° C.
Method: The ability of the compounds of formula (I) to bind to PD-1 was investigated using a Jurkat-PD-1 Cell Binding High-Content Screening Assay.
Jurkat-PD-1 Cell Binding High-Content Screening Assay (CBA)
Phycoerythrin (PE) was covalently linked to the Ig epitope tag of human PD-L1-Ig and fluorescently-labeled PD-L1-Ig was used for binding studies with a Jurkat cell line over-expressing human PD-1 (Jurkat-PD-1). Briefly, 8×10^3 Jurkat-hPD-1 cells were seeded into 384 well plates in 20 μL of DMEM supplemented with 10% fetal calf serum. 100 nL of compound was added to cells followed by incubation at 37° C. for 2 hours. Then, 5 μL of PE-labeled PD-L1-Ig (20 nM final), diluted in DMEM supplemented with 10% fetal calf serum. […] Data was collected and processed using a Cell Insight NXT High Content Imager and associated software.

## CC(C)C[C@@H]1NC(=O)[C@H](Cc2c[nH]c3ccccc23)NC(=O)[C@H](CC(=O)O)NC(=O)[C@H](Cc2ccc(O)cc2)NC(=O)[C@H](Cc2ccccc2)NC(=O)CSC[C@@H](C(=O)N[C@@H](C)C(N)=O)NC(=O)[C@H](CO)NC(=O)[C@H](C(C)C)NC(=O)[C@H](CC(C)C)NC(=O)[C@H](CC(N)=O)NC(=O)CN(C)C(=O)[C@H]2CCN2C(=O)[C@H](C(C)C)NC(=O)[C@H](Cc2ccc(-c3ccccc3)cc2)NC1=O [Example 1002] ({CH2CO}-FYDWL[Bip]V[dAze][Sar]NLVSCA-NH2; thioether N-14)
  IC50: 790 nM
